Assay results: US5789377A (priority 1995, dated 1998)
Where “and” joins values, the source holds several entries; their conditions need not be identical. Identical values can stand only once. Entries after “also recorded” stand apart in the source; their conditions may differ. At least one peptide structure holds a part that was inferred or is arguable (an end, a ring closure or a residue).

Legend:
[1] = MIC of common antibiotics in the presence of sub-MIC levels of cationic peptides; format: cell-based; conditions: peptide at 1/2 MIC levels
TNF = assay: blood TNF levels in LPS/Dgal injected mice; format: in vivo; conditions: animals injected with Dgal, peptide and LPS
P. AERUGINOSA H309 [2] = assay: lysozyme lysis assay (membrane permeabilization); format: cell-based; conditions: 50 μg/ml lysozyme, decrease in OD600, FIG. 5
Description: Membrane permeabilization by polycationic compounds was measured in two different assays. The first assay measured membrane disruption by the ability of lysozyme to reach the periplasm and cause cell lysis. […] The uptake of lysozyme into whole cells due to membrane permeabilization by various compounds was previously described in Hancock, et al., Antimicrobial Agents and Chemo., 19:777, 1981. Overnight cultures of P. aeruginosa H309 or E. cloacae 218R1 grown in LB-S were diluted 1 in 50 in fresh medium and grown to an OD600 =0.5-0.6. The cells were harvested in a Silencer H-103N clinical centrifuge at 1800 g for 10 min, washed once with one volume of assay buffer (5 mM HEPES pH 7.2, 5 mM KCN), and resuspended in the same buffer to an OD600 of 0.5. Assays consisted of 600 μl of cells with 50 μg/ml of chicken egg white lysozyme and varying concentrations of cationic compounds. Cell lysis was measured as a decrease in the OD600 in a Perkin-Elmer dual beam spectrophotometer. Parallel experiments performed without lysozyme enabled the measurement of the lytic activity of the compounds themselves. To test whether or not permeability to lysozyme could be inhibited by divalent cations, various concentrations of MgCl2 were added to the assay after the addition of lysozyme and before the addition of the test compound.

E. cloacae 218R1 [3] = assay: lysozyme lysis assay (membrane permeabilization); format: cell-based; conditions: 50 μg/ml lysozyme, decrease in OD600, FIG. 6
LPS-induced endotoxemia = assay: mouse endotoxic shock model, protection from lethal LPS; format: in vivo, Mice; conditions: for survival: 10 μg E. coli 0111:B4 LPS, peptide 200 μg; for % Mortality / dead/total: LPS 10 ug
[4] = tested on: RAW 264.7 macrophage cells; assay: inhibition of LPS-mediated TNF induction in macrophages (L929 cytotoxic TNF assay); format: cell-based; conditions: for lowest peptide concentration efficiently reducing LPS-induced TNF: 100 ng E. coli 0111:B4 or E. coli Bort LPS; for lowest peptide concentration efficiently reducing LPS-induced TNF / TNF Induction (% of Control): 6 hours
P. AERUGINOSA H309 [5] = assay: 1-N-phenylnaphthylamine (NPN) uptake assay; format: cell-based; conditions: 10 μM NPN, fluorescence, FIG. 7
Description: (§1) The second assay determined membrane permeability by the ability of 1-N-phenylnaphthylamine (NPN), a small fluorescent probe, to insert itself into the membrane. Normally, very little NPN can penetrate the outer membrane, but in the presence of a membrane permeabilizer it can insert into the hydrophobic membrane resulting in an increase in fluorescence (FIGS. 7 and 8). This N-phenylnaphthylamine uptake assay was previously described by Loh, et al., Antimicrobial Agents and Chemo., 26:546, 1984. Cells were prepared exactly the same as for the lysozyme lysis assay. 1-N-phenylnaphthylamine (NPN) was dissolved in acetone at a concentration of 500 μM. NPN fluorescence was measured in a Perkin-Elmer 650-10S fluorescent spectrophotometer using excitation and emission wavelengths set to 350 nm and 420 nm respectively, with slit widths of 5 nm. The assay was standardized by adding 20 μl of NPN (final concentration of 10 μM) and 10 μl of 0.64 mg/ml of polymyxin B (final concentration of 6.4 μg/ml) into 1 ml of cells, and adjusting the resulting fluorescence to read 90% deflection (90 arbitrary units). Various compounds were tested by adding 10 μl of different concentrations to a cuvette containing 1 ml of cells and 10 μM NPN. Permeabilizing activity was designated as the total fluorescence minus the fluorescence due to NPN alone. Following the fluorescence measurement, the OD600 of the cells was taken to ensure no significant cell lysis had occurred.

E. cloacae 218R1 [6] = assay: 1-N-phenylnaphthylamine (NPN) uptake assay; format: cell-based; conditions: 10 μM NPN, fluorescence, FIG. 8
Description: as §1

E. coli strain DC2 = assay: gel overlay antibacterial activity assay; format: cell-based; conditions: gel overlaid with ≈10^5 E. coli strain DC2, overnight at 37° C.
Description: A sample of the partially purified CEME protein was electrophoresed on a 15% acid-urea gel, which separates proteins based on charge and mass (Panyim and Chalkey, Arch. Biochem. Biophys., 130:337, 1969). The pH of the buffer is acidic (=pH 5.0) and the polarity is reversed such that proteins migrate to the cathode. Therefore, the small cationic peptides run relatively quickly through the gel and thus can be easily identified. Antibacterial activity was tested as previously described (Hultmark, Eur. J. Biochem., 106:7, 1980). The gel was incubated in Mueller Hinton broth+0.2M NaPO4 pH 7.4 for 1 hr. It was overlaid with 5 mls of the same media containing 0.6% agar and ≈10^5 E. coli strain DC2, and then again with 5 ml of the same media containing only 0.6% agar. […] Melittin is used as a positive control due to its antibacterial activity and similarity in size and PI values.

P. aeruginosa = assay: killing assay (viable count); format: cell-based; conditions: 2.5 μg/ml (0.9 μM), 20 minutes, 10^6 cells/ml

CC[C@H](C)[C@H](NC(=O)CNC(=O)[C@@H](NC(=O)[C@H](CCCCN)NC(=O)[C@H](CCCCN)NC(=O)[C@H](Cc1ccccc1)NC(=O)[C@H](CC(C)C)NC(=O)[C@H](CCCCN)NC(=O)[C@H](Cc1c[nH]c2ccccc12)NC(=O)[C@@H](N)CCCCN)[C@@H](C)CC)C(=O)NCC(=O)N[C@@H](C)C(=O)N[C@H](C(=O)N[C@@H](CC(C)C)C(=O)N[C@@H](CCCCN)C(=O)N[C@H](C(=O)N[C@@H](CC(C)C)C(=O)N[C@H](C(=O)N[C@H](C(=O)NCC(=O)N[C@@H](CC(C)C)C(=O)N1CCC[C@H]1C(=O)N[C@@H](C)C(=O)N[C@@H](CC(C)C)C(=O)N[C@@H](CCCCN)C(=O)N[C@@H](CC(C)C)C(=O)N[C@H](C(=O)N[C@@H](CCCCN)C(=O)O)[C@@H](C)O)[C@@H](C)O)[C@@H](C)O)C(C)C)C(C)C [CEMA]
reduction of MICs of ceftazidime, imipenem and tetracycline [1]: 2 fold
duration of suppression of TNF levels (TNF): up to 2 hours
permeabilization of outer membrane to lysozyme (P. AERUGINOSA H309 [2]): stronger permeabilizer for lysozyme than polymyxin B
permeabilization of outer membrane to lysozyme (E. cloacae 218R1 [3]): stronger permeabilizer for lysozyme than polymyxin B
survival (LPS-induced endotoxemia): 78%
% Mortality (LPS-induced endotoxemia; peptide 10 ug): 25%
dead/total (LPS-induced endotoxemia; peptide 10 ug): 2/8
% Mortality (LPS-induced endotoxemia; peptide 20 ug): 22%
dead/total (LPS-induced endotoxemia; peptide 20 ug): 2/9
depression of TNF induction in fresh RAW cells by aspirated medium containing peptide ([4]; 10 ng E. coli Bort LPS): 98.5%
lowest peptide concentration efficiently reducing LPS-induced TNF [4]: 5 µg/mL
depression of TNF induction in fresh RAW cells by aspirated medium containing peptide ([4]; 100 ng E. coli Bort LPS): 75%
TNF induction in washed RAW cells after pre-incubation with peptide ([4]; 20 μg peptide 60 minutes, cells washed 3 times, then 10 ng or 100 ng of LPS): 14,000-20,000 Units of TNF per ml
reduction in TNF levels induced by intact E. coli Bort cells ([4]; 20 μg peptide, 10^6 E. coli Bort cells, two independent experiments): 96% and 97%
inhibition of TNF induction by LPS, time of addition ([4]; E. coli 0111:B4 or Bort LPS at time 0, peptide added at 0, 30 and 60 minutes, TNF after 6 hours, FIG. 15): inhibited TNF induction by LPS in a similar manner to polymyxin B; also recorded: effective at reducing the ability of LPS to induce TNF in RAW cell lines even when added 60 minutes after the addition of LPS
opening up the membrane to NPN (P. AERUGINOSA H309 [5]): equally active
opening up the membrane to NPN (E. cloacae 218R1 [6]): equally active

CC[C@H](C)[C@H](NC(=O)CNC(=O)[C@@H](NC(=O)[C@H](CCCCN)NC(=O)[C@H](CCCCN)NC(=O)[C@H](Cc1ccccc1)NC(=O)[C@H](CC(C)C)NC(=O)[C@H](CCCCN)NC(=O)[C@H](Cc1c[nH]c2ccccc12)NC(=O)[C@@H](N)CCCCN)[C@@H](C)CC)C(=O)NCC(=O)N[C@@H](C)C(=O)N[C@H](C(=O)N[C@@H](CC(C)C)C(=O)N[C@@H](CCCCN)C(=O)N[C@H](C(=O)N[C@@H](CC(C)C)C(=O)N[C@H](C(=O)N[C@H](C(=O)NCC(=O)N[C@@H](CC(C)C)C(=O)N1CCC[C@H]1C(=O)N[C@@H](C)C(=O)N[C@@H](CC(C)C)C(=O)N[C@H](C(=O)N[C@@H](CO)C(=O)O)[C@@H](C)CC)[C@@H](C)O)[C@@H](C)O)C(C)C)C(C)C [CEME]
permeabilization of outer membrane to lysozyme (P. AERUGINOSA H309 [2]): stronger permeabilizer for lysozyme than polymyxin B, as was CEME, albeit only at lower concentrations
permeabilization of outer membrane to lysozyme (E. cloacae 218R1 [3]): stronger permeabilizer for lysozyme than polymyxin B, as was CEME, albeit only at lower concentrations
zones of clearing on overlaid acid-urea gel (E. coli strain DC2): zones of clearing
survival (LPS-induced endotoxemia): 45%
protection when LPS and peptide pre-incubated (LPS-induced endotoxemia; LPS and peptide incubated together 45 minutes at 37° C., injected simultaneously): completely protective
reduction of viable count (P. aeruginosa): three log orders
lowest peptide concentration efficiently reducing LPS-induced TNF [4]: 5 µg/mL
TNF Induction (% of Control) ([4]; E. coli LPS 10 ng/ml, CEME 2.4 μg/ml): 9 % of Control
TNF Induction (% of Control) ([4]; E. coli LPS 100 ng/ml, CEME 2.4 μg/ml): 34 % of Control
TNF Induction (% of Control) ([4]; P. aeruginosa LPS 10 ng/ml, CEME 1.2 μg/ml): 40 % of Control
TNF Induction (% of Control) ([4]; P. aeruginosa LPS 10 ng/ml, CEME 2.4 μg/ml): 10 % of Control
TNF Induction (% of Control) ([4]; P. aeruginosa LPS 100 ng/ml, CEME 1.2 μg/ml): 92 % of Control
TNF Induction (% of Control) ([4]; P. aeruginosa LPS 100 ng/ml, CEME 2.4 μg/ml): 59 % of Control
inhibition of TNF production by LPS ([4]; at the MIC (1.2-2.4 μg/ml), dose-dependent): ≤ 91%
opening up the membrane to NPN (P. AERUGINOSA H309 [5]): less active
opening up the membrane to NPN (E. cloacae 218R1 [6]): less active
